Reference: PubChem BioAssay AID588590 (National Center for Advancing Translational Sciences (NCATS), 2011)
Among all 390,000 compounds or so, about 4,000 (1%) were called active. The shares of active, inactive and inconclusive entries below differ from those in the screen. The call rests on the fitted dose curve; in most records, active means well fitted inhibition curve with a large enough effect; inconclusive means small, poorly fitted or top-dose-only effect, or another doubt; inactive means no such curve, though single readings can be large or run the other way. Where the call is inconclusive, the potency comes from a doubtful curve fit.

The chains behind the UniProt entries cited, without tags or fusion partners. Where a name states a change or a piece, a line headed by the entry shows the natural chain unless it says otherwise.
UniProt Q9UNA4: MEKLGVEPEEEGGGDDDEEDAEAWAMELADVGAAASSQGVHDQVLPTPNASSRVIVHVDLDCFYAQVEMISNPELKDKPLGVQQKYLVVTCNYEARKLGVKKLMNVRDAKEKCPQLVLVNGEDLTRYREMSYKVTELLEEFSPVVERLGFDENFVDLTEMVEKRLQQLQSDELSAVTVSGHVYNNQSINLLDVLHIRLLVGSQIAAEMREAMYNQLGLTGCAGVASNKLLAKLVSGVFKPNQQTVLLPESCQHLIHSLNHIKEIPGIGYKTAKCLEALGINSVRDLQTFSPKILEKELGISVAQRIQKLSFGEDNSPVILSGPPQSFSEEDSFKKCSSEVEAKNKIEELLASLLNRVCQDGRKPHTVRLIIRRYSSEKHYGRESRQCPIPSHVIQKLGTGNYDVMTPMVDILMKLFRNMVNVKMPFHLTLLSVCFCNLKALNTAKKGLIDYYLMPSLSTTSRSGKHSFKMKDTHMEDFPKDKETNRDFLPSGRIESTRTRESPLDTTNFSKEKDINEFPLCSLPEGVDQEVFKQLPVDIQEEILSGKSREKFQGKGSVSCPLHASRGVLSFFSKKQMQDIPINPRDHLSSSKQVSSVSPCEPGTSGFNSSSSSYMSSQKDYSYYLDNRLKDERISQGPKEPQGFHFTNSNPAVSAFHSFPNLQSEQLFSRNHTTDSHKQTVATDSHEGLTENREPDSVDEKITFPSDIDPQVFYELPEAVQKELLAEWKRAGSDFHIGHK

molecular target: DNA polymerase iota (Homo sapiens) (UniProt Q9UNA4); assay: qHTS for Inhibitors of Polymerase Iota; details: Pol iota fluorescent replication assay, 10 min; series mostly up to 115 µM; activity, negative = inhibition: at the top concentration
Method in brief: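 Fluorescent replication assay read twice, at 0 min and 10 min after adding 50 nM (final) substrate. Enzyme (10 nM) and compounds were first incubated 15 min at room temperature; enzyme-free buffer wells were negative controls.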
Potency means the concentration at half of the fitted maximal effect.

Potency, inconclusive:
Cc1ccc(-c2cc(C(=O)Oc3ccccc3)c3cccc(C)c3n2)cc1 50.1 µM [inhibitor, partial curve, poor fit], Cc1ccc(Cn2c(CCNc3nc(-c4ccc(C)cc4)cs3)nc3cc(C(=O)NCCCO)ccc32)cc1 17.8 µM [inhibitor, full curve, poor fit], COC/C=C/C1=CC2=CC(=O)C(C)(OC(=O)c3cnc4ccccc4n3)C(=O)C2=CN1C(CO)CO (stereo not given) 20 µM [inhibitor, single point], Cc1cc(C(=O)COc2ccccc2[N+](=O)[O-])c(C)n1C1CC1 79.4 µM [inhibitor, single point], C=CCn1c(SCC(=O)NCCOC)nc2scc(-c3ccco3)c2c1=O 31.6 µM [inhibitor, full curve, poor fit], O=C(Nc1ccc(S(=O)(=O)Nc2ncccn2)cc1)C1=NN(c2ccccc2)C(=O)CC1 14.1 µM [inhibitor, partial curve, poor fit], O=C1CC(c2ccccc2)Cc2[nH]c(=O)c(-c3nc(-c4ccc(F)cc4)cs3)cc21 (stereo not given) 20 µM [inhibitor, partial curve, poor fit], CCc1ccc2oc(-c3cc(N)ccc3Cl)nc2c1 0.631 µM [inhibitor, full curve, poor fit], O=[N+]([O-])c1cc(-c2csc(NCCc3nc4cc(Cl)c(N5CCCCC5)cc4n3CCCO)n2)ccc1Cl 10 µM [inhibitor, partial curve, poor fit], CCn1c(SCC(=O)Nc2nccc(C)n2)nc2ccccc21 22.4 µM [inhibitor, single point], COc1cc(-c2nc3ccccn3c2/N=C/c2cc(OC)c(O)cc2Cl)ccc1O 89.1 µM [inhibitor, partial curve, poor fit], Nc1c(Br)cc(Br)c2c1C(=O)c1c(cccc1S(=O)(=O)O)C2=O 31.6 µM [inhibitor, full curve], COc1ccc(C(=O)N/C(=C\c2cccc3ccccc23)C(=O)NCCc2c[nH]c3ccccc23)cc1OC 3.55 µM [inhibitor, partial curve, poor fit], NC(=O)CN1CCOCCOCCN(CC(N)=O)CCOCCOCC1 112 µM [inhibitor, single point], COc1ccc(-c2ccc(SCC(=O)Nc3cc(C)on3)nn2)cc1OC 31.6 µM [inhibitor, single point], CCc1ccc(NC(=O)CSc2ccc(-c3cccnc3)nn2)cc1 70.8 µM [inhibitor, partial curve, poor fit], Nc1cc(=O)[nH]c(SCC(=O)N2CCC(Cc3ccccc3)CC2)n1 56.2 µM [inhibitor, partial curve, poor fit], O=C(/C=C/c1ccc(Cl)cc1Cl)NC(=S)Nc1ccccn1 89.1 µM [inhibitor, partial curve, poor fit], COc1ccc(CCNC(=O)Cn2nc(C)c3c(C)n(-c4ccccc4)nc3c2=O)c(OC)c1 50.1 µM [inhibitor, partial curve], COc1cc(C(=O)/C=C/c2cccnc2)ccc1O 17.8 µM [inhibitor, partial curve, poor fit], NC(=O)[C@@H]1CCCNc2c(I)cc([N+](=O)[O-])cc2C(=O)N[C@@H](Cc2ccccc2)C(=O)N[C@@H](Cc2cnc[nH]2)C(=O)N1 31.6 µM [inhibitor, single point], COc1ccc(C(=O)Nn2c(SCc3ccc([N+](=O)[O-])cc3)nc3ccccc3c2=O)cc1 11.2 µM [inhibitor, partial curve, poor fit], O=S(=O)(Nc1nc(-c2sccc2Cl)cs1)c1cc(Cl)ccc1Cl 14.1 µM [inhibitor, partial curve, poor fit], Cc1nc2ccccc2c(N)c1C(=O)/C=C/c1ccccc1 31.6 µM [inhibitor, partial curve, poor fit], Cc1ccc(-c2cc(-c3ccccc3C)[nH]n2)c(O)c1 112 µM [inhibitor, single point], CC(C)(C)OC(=O)N1CCC(c2c(C(=O)NCCc3ccsc3)cnn2-c2ccccc2Cl)CC1 3.55 µM [inhibitor, full curve], O=C(CCCN1C(=O)c2ccccc2C1=O)Oc1ccc(Cl)cc1 5.01 µM [inhibitor, full curve, poor fit], CC(C)(C)C(=O)Cn1c(=N)n(Cc2ccccc2Cl)c2ccccc21 35.5 µM [inhibitor, single point], Cc1ccc(-c2nn(C)c(=O)c3ccccc23)cc1S(=O)(=O)NCCN1CCOCC1 31.6 µM [inhibitor, full curve, poor fit], CCc1c(C)c2cc(Cl)c(O)c(CN3CCCC3)c2oc1=O 50.1 µM [inhibitor, partial curve], CCOC(=O)c1csc(NC(=O)CSc2nnnn2-c2ccc3c(c2)OCCO3)n1 50.1 µM [inhibitor, partial curve, poor fit], O=S(=O)(c1cccs1)N1CCCc2cccc(O)c21 35.5 µM [inhibitor, single point], COc1ccc(C2CC(=O)N3CN(c4ccc(C)c(Cl)c4)CSC3=C2C#N)cc1 (stereo not given) 0.891 µM [inhibitor, partial curve, poor fit], CN(C)c1ccc(C2C3=C(CCCC3=O)OC3=C2C(=O)CCC3)cc1 25.1 µM [inhibitor, partial curve, poor fit], Cc1oc2c(F)c(F)c(F)c(F)c2c1S(=O)(=O)Nc1cccc(C(F)(F)F)c1 14.1 µM [inhibitor, full curve], Cc1cc(C)c(NC(=O)CSc2nc3ccccc3c3nc(CCn4cncc4C)nn23)c(C)c1 89.1 µM [inhibitor, partial curve], COc1cc(/C=C2\SC(=O)NC2=O)ccc1Oc1cnccn1 12.6 µM [inhibitor, partial curve, poor fit], CC(=O)Nc1ccc(S(=O)(=O)N(C)c2ccc(OCC(=O)OCC(=O)Nc3ccc(OC(F)F)cc3)cc2)cc1 25.1 µM [inhibitor, partial curve, poor fit], O=C(Nc1nc(-c2ccccc2)cs1)c1ccccc1F 20 µM [inhibitor, partial curve, poor fit], COc1ccc(/C=N/NC(=O)c2nonc2C)cc1 31.6 µM [inhibitor, single point], COc1cccc(C2=NOC(C(=O)NCC3CCCO3)C2)c1 (stereo not given) 89.1 µM [inhibitor, single point]

Potency, active:
Cc1nc2ccc(C(=O)O)cc2c2c1CC(C)S2 (stereo not given) 5.01 µM, CNC(=O)COC(=O)c1c2c(nc3ccccc13)CCC2 8.91 µM, O=P(c1ccccc1)(c1ccccc1)c1cc(S(=O)(=O)O)ccc1O 25.1 µM, C=C(CC)C(=O)c1ccc(OCC(=O)O)c(Cl)c1Cl 10 µM

activity, negative = inhibition, inactive:
CCCCCCOc1ccc(-c2nc3ccc(Br)cc3c(=O)o2)cc1 -8.21%, Cc1cc2c(cc1NC(=O)c1ccc(C(C)(C)C)cc1)n(C)c(=O)c(=O)n2C 16.3%, COc1ccc(N2CCN(C(CNC(=O)c3ccc(C)cc3)c3ccc4c(c3)OCO4)CC2)cc1 (stereo not given) 18.3%, Cn1cc(Br)c(C(=O)Nc2sc3c(c2C#N)CCC3)n1 107%, COc1ccc(NC(=O)COc2ccc(C(=O)OCC(=O)N(C)C3CCS(=O)(=O)C3)cc2OC)cc1 (stereo not given) 55.3%, CCCCCC(=O)Nc1cccc(C2=NOC3(C2)C[C@@H](C(N)=O)N(C(=O)c2ccc(OC)cc2)C3)c1 (stereo not given in full) -16.8%, CCN(CC)CCN(C(=O)/C=C/c1cccs1)c1nc2ccc(Cl)cc2s1 9.59%, CCN(CC)c1cc(C)c2cc(NC(=O)c3ccccc3Cl)ccc2n1 -1.11%, Cc1nnc(C)n1/N=C/c1ccc(-c2ccccc2Cl)o1 129%, CC(C)(C)OC(=O)N1CCC(c2c(C(=O)Nc3ccc4c(c3)OCCO4)cnn2-c2ccc(F)cc2F)CC1 -19.9%, Cn1c2ccccc2c2c(C(=O)N3CCN(c4cccc(Cl)c4)CC3)cn(C3CCCCC3)c(=O)c21 23.2%, Cn1c(=O)n(C)c2cc(N3CCOCC3)c(NC(=O)c3ccc(Cl)cc3)cc21 25.6%, CCOc1ccc(NC(=O)C2CCN(c3nc4ccccc4[nH]3)CC2)cc1 -1.49%, COc1ccc(-n2c(=O)c3c4c(sc3n(Cc3ccc(C)cc3C)c2=O)CCC4)c(OC)c1 -8.61%, CN(CC(=O)Nc1ccc(Cl)cc1F)C1=NS(=O)(=O)c2ccccc21 57%, FC(F)(F)c1cccc(Cn2c3[n+](c4ccc(C(F)(F)F)cc42)CCCCC3)c1 86.7%, CCOC(=O)N1CCC(NC(=O)Cn2ncc3ccccc32)CC1 25.8%, CCC(C(=O)Nc1ccc(C(C)=O)cc1)n1cnc2nc3c(cc2c1=O)CCCC3 (stereo not given) 27.6%, Oc1ccc(/C=N/N2CCN(C3c4ccccc4-c4ccccc43)CC2)cc1 -22.7%, COc1ccc(Cn2c(=O)[nH]c3cc(C(=O)NCCC(C)C)ccc3c2=O)cc1 25.7%
